We go through 42 sequences from paper PMC7819943, “Rice protein-binding microarrays: a tool to detect cis-acting elements near promoter regions in rice”.

Some of the results follow.

For the experiment, the target named is T1, OsSMF1 (Oryza sativa, UniProt Q6ZLB0 1-436).
T1 sequence: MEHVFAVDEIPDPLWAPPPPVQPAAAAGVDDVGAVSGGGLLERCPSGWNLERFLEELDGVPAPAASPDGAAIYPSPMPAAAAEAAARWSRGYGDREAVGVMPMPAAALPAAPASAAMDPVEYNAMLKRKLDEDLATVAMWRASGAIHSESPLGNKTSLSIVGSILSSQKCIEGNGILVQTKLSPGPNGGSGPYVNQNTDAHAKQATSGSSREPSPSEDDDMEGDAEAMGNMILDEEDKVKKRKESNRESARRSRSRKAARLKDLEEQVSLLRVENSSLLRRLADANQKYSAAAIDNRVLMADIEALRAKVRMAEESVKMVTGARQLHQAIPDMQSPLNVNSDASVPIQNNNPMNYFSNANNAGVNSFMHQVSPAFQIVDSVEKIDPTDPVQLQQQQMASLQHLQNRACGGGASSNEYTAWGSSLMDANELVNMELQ
Kind of experiment: protein-binding microarray (RPBM); PBS, 2% BSA, 51.3 ng/ul salmon testes DNA, 50 uM zinc acetate, 200 nM TF, 25 C, 1 h; high values mean tight binding. As to conditions: protein: recombinant; tags: N-terminal polyhistidine and DsRed monomer fusion (pET32a); chain copies: 2; label: CyDye5-dUTP incorporated in the synthesized complementary strand; 3' TTTTT single-stranded linker to array surface; dsDNA, one strand shown. In outline: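 Using Ni–NTA, transcription factors fused N-terminally to polyhistidine and DsRed were purified after expression in E. coli BL21-CodonPlus. These were incubated at 200 nM with a blocked, double-stranded custom Agilent array for 1 h at 25 °C in a buffer containing 50 µM zinc acetate, and the array was washed. The binding signal is per-feature fluorescence intensity (arbitrary units) on an Axon 4000B scanner.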
Turning to “GGCCTGCACGGTGGCGTCGTAGCGTGGCCTGTCCCACTTGCGGAGTCACCTAGTGCAG”, the binding signal was 3980 fluorescence intensity (a.u.). In the case of “TTTGGGGCATATGAATTCCACGTGTATTCCAAAATTTCTCCGGAGTCACCTAGTGCAG” it was 12500 fluorescence intensity (a.u.); in that of “AAATGGTTTATTATCTGACTCATACAACATGTGCTGCCAACGGAGTCACCTAGTGCAG”, 9160 fluorescence intensity (a.u.). Regarding “TCTCCCTTTCCAACTCTCCACATCCAAACAGCAGACTAAACGGAGTCACCTAGTGCAG”, the binding signal was 28800 fluorescence intensity (a.u.). In the case of “TCGACATGACATGTTGCGTCACTGCACGAAGCGGAGTGAACGGAGTCACCTAGTGCAG” it was 4290 fluorescence intensity (a.u.). For “AGAAGAAAATTAAAGAAACTGACTTGGATAGCACTGCACTCGGAGTCACCTAGTGCAG” the value was 3460 fluorescence intensity (a.u.); for “CACCTCGTTTTGCGTAAAACACTTGATCTTGATCTTTATCCGGAGTCACCTAGTGCAG”, 6540 fluorescence intensity (a.u.). For “AAGAAAACCAATGTCAGCAAACTTATCCAAATCGAGCTCGCGGAGTCACCTAGTGCAG” the value was 3840 fluorescence intensity (a.u.); for “CCGCCACCCGCTGCCCGGGGAGCTCCGCCTTCACCTCCGCCGGAGTCACCTAGTGCAG”, 7820 fluorescence intensity (a.u.).

“CACGGATTATTGCAATCGATCCAAACAATCACGTCGGTCGCGGAGTCACCTAGTGCAG”: the binding signal is 3390 fluorescence intensity (a.u.). For the sequence “GCGAGACGGCAGGTCTTACAGGTGGGCCCCACGTGGCAGACGGAGTCACCTAGTGCAG”, the binding signal is 14200 fluorescence intensity (a.u.). For “AGCTATACGTCTCCGGTATTGAACGTGAATTAAAACAATACGGAGTCACCTAGTGCAG” the value was 3580 fluorescence intensity (a.u.); for “ACAATCATCAACTCTAGATGACATGGACATATGTTACCACCGGAGTCACCTAGTGCAG”, 4690 fluorescence intensity (a.u.); for “CCATTTCTTGCATCCCTTCCGGATCTATCAGCCCCGTCACCGGAGTCACCTAGTGCAG”, 4090 fluorescence intensity (a.u.). As for “ATTAGGCTCAAAAGATTCGTCTCGCGATTTTCAGACGAGCCGGAGTCACCTAGTGCAG”, the binding signal was 41800 fluorescence intensity (a.u.). For “AATTGGGTTATCTTTTCCTTGTCATCTAAGATGAAGAATCCGGAGTCACCTAGTGCAG” the value was 3150 fluorescence intensity (a.u.). “GTACGCGAGCATCCCGGCGTTGTCGAGGCGCTCCAGGACGCGGAGTCACCTAGTGCAG”: the binding signal is 40200 fluorescence intensity (a.u.). For “CGCAGATCGACGACCCGTCCTTCGTCACCGTCTATGGCGTCGGAGTCACCTAGTGCAG” the value was 4530 fluorescence intensity (a.u.); for “GGATCGAATTGCCACATAAACGCCACGTCAATGCCACATCCGGAGTCACCTAGTGCAG”, 10400 fluorescence intensity (a.u.). For “TAGCTCTTACATAAAAGCTAGCGTCATTCTCTTATCCACACGGAGTCACCTAGTGCAG” the value was 5300 fluorescence intensity (a.u.); for “TGCTTGCCGTTCGTTCGTGTGTGTGTGCGTGTGCGTAAGCCGGAGTCACCTAGTGCAG”, 4340 fluorescence intensity (a.u.). In the case of “AGGGCCGCTTGGGACCCACGTGTCGGTGGGATGGTGTTTGCGGAGTCACCTAGTGCAG” it was 7360 fluorescence intensity (a.u.). Regarding “ACAAGGGTCCAAGGCACGCTGAGTCAGACCCACTTGGGCGCGGAGTCACCTAGTGCAG”, the binding signal is 12500 fluorescence intensity (a.u.).

Turning to “AAACGTAGTCTAATAACAAAACAAATTACAGATTCCGCTTCGGAGTCACCTAGTGCAG”, the binding signal was 28400 fluorescence intensity (a.u.). For “CTGCGGCCGAGGTCGCATGACCATGTGGACATCCTCGCGCCGGAGTCACCTAGTGCAG” the value was 3460 fluorescence intensity (a.u.). For “GCTCGCTCCAGTCCACCCACGCACGCACGCACGGCACGTTCGGAGTCACCTAGTGCAG” the value was 3600 fluorescence intensity (a.u.). Take “CAACAAGACTTTGGAGATAGGCTAATACGTGTCCTAGTGTCGGAGTCACCTAGTGCAG”: the binding signal was 5760 fluorescence intensity (a.u.). In the case of “TGGCGTCCGTGACGACGACGGTGACGACGGGCACGATGGCCGGAGTCACCTAGTGCAG” it was 4230 fluorescence intensity (a.u.). Consider “AGTAGCAATTACCCACGTGGCATCCACCGCTGTTGTTTCCCGGAGTCACCTAGTGCAG”, for which the binding signal was 15900 fluorescence intensity (a.u.). For “ATCCATGTGATAAATAACACGTGCGCGAATTAACATTTCTCGGAGTCACCTAGTGCAG” the value was 5060 fluorescence intensity (a.u.); for “AGTTTCACGCACGCACACCGGTCCATTGATTTCTCGCCGCCGGAGTCACCTAGTGCAG”, 3300 fluorescence intensity (a.u.); for “ACACCCGTCCGTCCCGTCTCGTTCTGCGCCGTCTCGCCGGCGGAGTCACCTAGTGCAG”, 18700 fluorescence intensity (a.u.). As to “CTGGTGATTCCATCCAGCCGTCCACATGGTCATCGCTCATCGGAGTCACCTAGTGCAG”, the binding signal was 3400 fluorescence intensity (a.u.). For “GTGTTGGTGGCTCTGGCTGCGTCGACGTGCGCAGGGCGTTCGGAGTCACCTAGTGCAG” the value was 6130 fluorescence intensity (a.u.); for “TTGACAACAGGAGATTCTGGTCAATTTTAACTATATTATACGGAGTCACCTAGTGCAG”, 25800 fluorescence intensity (a.u.); for “TAGCCAGAGACTATCCCGCCGTATTATTTCGACCAAATTCCGGAGTCACCTAGTGCAG”, 17200 fluorescence intensity (a.u.). With “GTCGGCGCCGAAAGGCATAAACCTGTCAGCGTGGCCCGTCCGGAGTCACCTAGTGCAG”, the binding signal was 3300 fluorescence intensity (a.u.). In the case of “GCCGCTTTTGCGAATTTTGCACGTAGACCCCTTGCCGCCCCGGAGTCACCTAGTGCAG” it was 3330 fluorescence intensity (a.u.). In the case of “AGCCCAATGCTATATACGTTGCAAGTTATAAATTTAAAGACGGAGTCACCTAGTGCAG” it was 24800 fluorescence intensity (a.u.); in that of “TATGCCAAAGAGAAGCCTCGTCAGCCATCCCTTTGGCCACCGGAGTCACCTAGTGCAG”, 7800 fluorescence intensity (a.u.). Regarding “CGCCGCCTCCCTCACTGACGGGTGGGCCCCACATGTCAGGCGGAGTCACCTAGTGCAG”, the binding signal is 4130 fluorescence intensity (a.u.). For “AGACATGTGCCACTCTCAGTTCCTAATGTAAGCTTTCCATCGGAGTCACCTAGTGCAG” the value was 21300 fluorescence intensity (a.u.).
